These results are taken from patent US20070232789A1.

By UniProt entry, the sequences of proteins in these tests, tags left out. Where a name states a change or a piece, a line headed by the entry shows the natural chain unless it says otherwise.
UniProt Q07954: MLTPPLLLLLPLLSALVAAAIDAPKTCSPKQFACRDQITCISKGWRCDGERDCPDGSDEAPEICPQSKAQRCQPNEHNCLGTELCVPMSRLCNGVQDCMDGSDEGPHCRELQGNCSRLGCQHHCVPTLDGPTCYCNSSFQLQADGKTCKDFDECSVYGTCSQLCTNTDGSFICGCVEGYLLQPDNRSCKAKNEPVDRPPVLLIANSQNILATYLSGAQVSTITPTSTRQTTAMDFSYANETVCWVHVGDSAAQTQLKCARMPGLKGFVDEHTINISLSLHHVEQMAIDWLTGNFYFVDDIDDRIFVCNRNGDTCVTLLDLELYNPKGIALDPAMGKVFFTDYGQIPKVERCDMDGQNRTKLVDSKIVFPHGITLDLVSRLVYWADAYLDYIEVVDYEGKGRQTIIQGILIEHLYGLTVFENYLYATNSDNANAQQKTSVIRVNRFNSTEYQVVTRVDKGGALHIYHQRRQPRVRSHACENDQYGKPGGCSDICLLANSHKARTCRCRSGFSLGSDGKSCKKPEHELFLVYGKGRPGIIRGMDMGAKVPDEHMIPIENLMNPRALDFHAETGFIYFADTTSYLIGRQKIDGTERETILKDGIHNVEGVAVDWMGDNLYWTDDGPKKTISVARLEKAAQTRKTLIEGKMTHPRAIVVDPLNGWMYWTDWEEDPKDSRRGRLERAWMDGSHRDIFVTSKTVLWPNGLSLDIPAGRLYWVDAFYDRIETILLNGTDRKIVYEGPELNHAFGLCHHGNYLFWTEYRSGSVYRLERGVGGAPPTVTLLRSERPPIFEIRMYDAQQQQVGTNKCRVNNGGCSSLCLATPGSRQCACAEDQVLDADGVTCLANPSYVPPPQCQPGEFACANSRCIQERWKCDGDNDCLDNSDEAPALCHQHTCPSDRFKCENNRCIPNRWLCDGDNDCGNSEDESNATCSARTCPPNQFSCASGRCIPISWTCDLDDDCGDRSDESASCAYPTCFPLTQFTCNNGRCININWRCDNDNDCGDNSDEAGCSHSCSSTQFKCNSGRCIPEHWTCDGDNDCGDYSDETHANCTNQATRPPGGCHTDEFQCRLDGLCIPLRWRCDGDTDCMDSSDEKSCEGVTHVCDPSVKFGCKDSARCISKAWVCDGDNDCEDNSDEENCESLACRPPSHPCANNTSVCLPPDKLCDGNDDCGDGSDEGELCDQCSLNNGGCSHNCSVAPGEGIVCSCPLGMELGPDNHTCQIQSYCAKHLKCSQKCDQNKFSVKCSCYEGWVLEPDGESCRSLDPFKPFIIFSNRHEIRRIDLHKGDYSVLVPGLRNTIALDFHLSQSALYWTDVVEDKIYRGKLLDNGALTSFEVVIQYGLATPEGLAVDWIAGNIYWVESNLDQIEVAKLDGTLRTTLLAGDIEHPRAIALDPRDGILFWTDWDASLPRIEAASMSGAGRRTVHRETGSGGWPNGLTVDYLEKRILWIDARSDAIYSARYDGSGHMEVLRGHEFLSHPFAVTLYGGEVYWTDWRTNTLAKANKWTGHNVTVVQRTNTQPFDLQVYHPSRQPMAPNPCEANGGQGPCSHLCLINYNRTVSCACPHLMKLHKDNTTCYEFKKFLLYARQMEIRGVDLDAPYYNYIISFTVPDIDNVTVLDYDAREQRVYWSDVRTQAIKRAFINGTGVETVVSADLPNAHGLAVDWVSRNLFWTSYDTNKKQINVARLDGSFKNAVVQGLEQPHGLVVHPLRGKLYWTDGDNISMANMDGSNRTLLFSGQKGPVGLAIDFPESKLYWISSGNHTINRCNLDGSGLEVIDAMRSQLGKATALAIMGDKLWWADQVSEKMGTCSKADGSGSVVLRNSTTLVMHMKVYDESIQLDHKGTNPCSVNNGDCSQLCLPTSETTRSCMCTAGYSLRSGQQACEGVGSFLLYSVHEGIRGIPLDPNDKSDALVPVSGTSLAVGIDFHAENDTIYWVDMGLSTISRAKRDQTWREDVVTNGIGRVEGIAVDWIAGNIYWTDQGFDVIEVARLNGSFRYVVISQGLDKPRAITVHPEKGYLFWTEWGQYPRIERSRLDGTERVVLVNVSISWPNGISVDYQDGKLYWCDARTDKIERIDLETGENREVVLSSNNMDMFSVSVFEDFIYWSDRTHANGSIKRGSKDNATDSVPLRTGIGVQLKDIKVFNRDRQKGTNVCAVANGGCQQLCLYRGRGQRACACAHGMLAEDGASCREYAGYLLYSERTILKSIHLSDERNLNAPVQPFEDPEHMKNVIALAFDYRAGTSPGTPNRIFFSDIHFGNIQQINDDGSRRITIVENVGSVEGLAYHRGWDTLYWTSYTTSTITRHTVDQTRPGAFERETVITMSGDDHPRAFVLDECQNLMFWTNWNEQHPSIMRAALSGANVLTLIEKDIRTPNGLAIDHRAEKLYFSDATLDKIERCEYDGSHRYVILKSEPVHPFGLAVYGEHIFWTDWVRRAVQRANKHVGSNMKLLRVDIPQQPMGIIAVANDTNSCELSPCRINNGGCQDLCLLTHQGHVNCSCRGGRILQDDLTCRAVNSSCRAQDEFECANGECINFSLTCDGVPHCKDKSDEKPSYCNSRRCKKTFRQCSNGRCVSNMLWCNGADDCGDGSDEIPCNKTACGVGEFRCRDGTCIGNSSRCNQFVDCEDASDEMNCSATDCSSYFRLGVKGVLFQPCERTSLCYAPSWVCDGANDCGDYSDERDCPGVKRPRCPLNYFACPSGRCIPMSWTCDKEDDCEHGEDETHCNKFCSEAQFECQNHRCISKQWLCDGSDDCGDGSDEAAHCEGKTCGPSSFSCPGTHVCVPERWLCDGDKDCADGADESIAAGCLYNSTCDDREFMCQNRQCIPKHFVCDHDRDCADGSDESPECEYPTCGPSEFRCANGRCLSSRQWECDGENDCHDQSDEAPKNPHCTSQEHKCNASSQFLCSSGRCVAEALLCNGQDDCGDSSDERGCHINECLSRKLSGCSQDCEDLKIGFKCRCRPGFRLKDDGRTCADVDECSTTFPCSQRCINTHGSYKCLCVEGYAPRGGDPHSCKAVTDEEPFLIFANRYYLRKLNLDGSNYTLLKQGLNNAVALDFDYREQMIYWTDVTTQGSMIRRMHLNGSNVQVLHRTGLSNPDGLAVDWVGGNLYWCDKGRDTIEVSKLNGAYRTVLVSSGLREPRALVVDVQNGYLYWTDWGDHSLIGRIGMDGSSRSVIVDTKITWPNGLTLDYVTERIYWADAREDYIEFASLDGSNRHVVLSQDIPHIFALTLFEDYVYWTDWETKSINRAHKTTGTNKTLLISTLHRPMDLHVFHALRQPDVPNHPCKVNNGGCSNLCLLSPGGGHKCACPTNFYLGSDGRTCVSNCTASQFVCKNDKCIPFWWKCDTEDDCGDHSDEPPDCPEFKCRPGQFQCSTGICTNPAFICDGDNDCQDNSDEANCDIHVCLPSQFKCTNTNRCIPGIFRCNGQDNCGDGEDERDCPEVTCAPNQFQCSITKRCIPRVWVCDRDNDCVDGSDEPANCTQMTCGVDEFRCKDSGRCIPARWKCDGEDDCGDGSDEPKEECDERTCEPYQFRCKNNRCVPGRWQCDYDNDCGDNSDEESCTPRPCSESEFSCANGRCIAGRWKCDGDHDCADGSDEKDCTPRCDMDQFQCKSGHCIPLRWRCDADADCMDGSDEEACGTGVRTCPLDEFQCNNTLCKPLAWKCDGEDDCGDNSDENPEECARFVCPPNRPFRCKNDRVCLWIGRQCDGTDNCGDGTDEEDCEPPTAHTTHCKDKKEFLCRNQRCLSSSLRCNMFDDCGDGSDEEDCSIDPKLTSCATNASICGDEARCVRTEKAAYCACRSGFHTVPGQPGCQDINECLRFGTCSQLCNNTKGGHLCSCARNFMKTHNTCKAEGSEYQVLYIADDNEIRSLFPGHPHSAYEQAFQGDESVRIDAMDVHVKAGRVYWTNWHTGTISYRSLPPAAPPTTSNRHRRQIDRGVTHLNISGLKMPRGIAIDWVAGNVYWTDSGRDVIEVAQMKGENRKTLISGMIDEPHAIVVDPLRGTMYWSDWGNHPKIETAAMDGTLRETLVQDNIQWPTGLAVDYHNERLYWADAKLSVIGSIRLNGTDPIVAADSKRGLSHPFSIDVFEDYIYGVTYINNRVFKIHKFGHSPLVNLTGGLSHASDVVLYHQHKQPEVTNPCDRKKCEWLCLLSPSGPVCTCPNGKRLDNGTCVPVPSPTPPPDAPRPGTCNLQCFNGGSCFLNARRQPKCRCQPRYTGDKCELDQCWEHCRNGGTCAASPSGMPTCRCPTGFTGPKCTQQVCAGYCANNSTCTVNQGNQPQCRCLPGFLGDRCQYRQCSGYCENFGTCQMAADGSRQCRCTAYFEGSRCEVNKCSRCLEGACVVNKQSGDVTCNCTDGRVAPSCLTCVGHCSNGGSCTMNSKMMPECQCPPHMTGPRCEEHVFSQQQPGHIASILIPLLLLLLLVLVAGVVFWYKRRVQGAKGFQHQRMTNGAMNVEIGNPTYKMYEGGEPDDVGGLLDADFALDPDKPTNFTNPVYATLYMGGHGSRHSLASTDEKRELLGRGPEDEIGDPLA

In the test the target is low-density lipoprotein receptor-related protein (LRP), purified (human) (UniProt Q07954). The test is described as follows: competition: peptide 484-509 varied, competitor 125I-fVIII, LRP-coated microtiter wells.

These are yes or no findings as the source states them, for the method shown. Binding can be weak; no strength is given.

In the case of RPLYSRRLPKGVKHLKDFPILPGEIF [synthetic A2 domain peptide 484-509], the binding result is “binds”.
